Experimental data as given in patent publication US20260200979A1, “PEPTIDE FOR CARTILAGE REGENERATION, AND USES THEREOF” (CAREGEN CO., LTD., priority 2022, published 2026).
At least one peptide structure holds a part that was inferred or is arguable (an end, a ring closure or a residue). Ends that are not written are not given here.

Experiments:
Assay type in all cases: cell-based
[1] = system: COL2A1, COMP, COL11A, ACAN mRNA in human-derived chondrocytes (C28/I2); assay: mRNA expression of ECM components (PCR); conditions: C28/I2 cells, different concentrations, 1, 3 and 7 days
[2] = system: SOX5, SOX6, SOX9 proteins in human-derived chondrocytes (C28/I2); assay: Expression of ECM regulatory factors SOX5, SOX6, SOX9 (Western blot); conditions: C28/I2 cells, different concentrations, 1, 3 and 7 days
[3] = system: SOX9 mRNA in human-derived chondrocytes (C28/I2); assay: mRNA expression of ECM regulatory factor SOX9 (PCR); conditions: C28/I2 cells, different concentrations, 1, 3 and 7 days
[4] = system: human-derived chondrocytes (C28/I2); assay: Glycosaminoglycan production (Alcian blue staining); conditions: C28/I2 cells, different concentrations, 7 days

| Substance | mRNA production of ACAN [1] | mRNA production of COL2A1 [1] | mRNA production of COL11A [1] | mRNA production of COMP [1] | expression of SOX5 protein [2] | expression of SOX6 protein [2] | expression of SOX9 protein [2] | mRNA expression of SOX9 [3] | production of glycosaminoglycan [4] |
| --- | --- | --- | --- | --- | --- | --- | --- | --- | --- |
| KFLIK [Peptide-2, KFLIK] | increased the mRNA production | increased the mRNA production | increased the mRNA production | increased the mRNA production | increased the expression | increased the expression | increased the expression | induced the production of SOX9 | promoted the production of glycosaminoglycan |
| PYYRI [Peptide-1, PYYRI] | increased the mRNA production | increased the mRNA production | increased the mRNA production | increased the mRNA production | increased the expression | increased the expression | increased the expression | induced the production of SOX9 | promoted the production of glycosaminoglycan |
